PubChem BioAssay AID1259308 – NCATS, 2017

Purpose: 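Candidate targets for better recombinant protein yield in mammalian cells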 (primary screen)
Cells: human HEK293 embryonic kidney cells stably expressing firefly luciferase (HEK-CMV-Luc2-Hygro)
Reagents: single siRNA against human genes, 0.8 pmol siRNA per well
Timing: 72 h
Detection: 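Reporter luminescence and viable-cell signal on separate replicate plates, given as percent of non-targeting control and median/MAD z-scores, plus per-cell luciferase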
Direction: total luciferase, z-score and total luciferase, % of control: higher = more reporter protein produced
Call rule: 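An siRNA counts as active if its total luciferase robust z-score exceeds 3; genes with two or more such siRNAs out of three were retested with fresh siRNAs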
Calls: active = raised luciferase; inactive = no rise
The deposit covers about 59,000 reagents; shown is a random part of them. Over the whole deposit, about 1,510 (2.6%) are marked active. 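Calls use total luciferase alone and ignore viability, so some active siRNAs may act by altering cell number.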 The numbers tell different reagents against one gene apart. Not all columns of the deposit are shown.

{"gene": "BEND7 (BEN domain containing 7)", "siRNA no.": 1, "total luciferase, z-score": 2.2, "total luciferase, % of control": 126, "outcome": "inactive"}
{"gene": "BEND7 (BEN domain containing 7)", "siRNA no.": 2, "total luciferase, z-score": -0.34, "total luciferase, % of control": 75.1, "outcome": "inactive"}
{"gene": "BEND7 (BEN domain containing 7)", "siRNA no.": 3, "total luciferase, z-score": -0.273, "total luciferase, % of control": 76.4, "outcome": "inactive"}
{"gene": "CCDC61 (coiled-coil domain containing 61)", "siRNA no.": 1, "total luciferase, z-score": 0.279, "total luciferase, % of control": 87.4, "outcome": "inactive"}
{"gene": "CCDC61 (coiled-coil domain containing 61)", "siRNA no.": 2, "total luciferase, z-score": 0.276, "total luciferase, % of control": 87.4, "outcome": "inactive"}
{"gene": "CCDC61 (coiled-coil domain containing 61)", "siRNA no.": 3, "total luciferase, z-score": 2.77, "total luciferase, % of control": 137, "outcome": "inactive"}
{"gene": "ZIC2 (Zic family zinc finger 2)", "siRNA no.": 1, "total luciferase, z-score": -0.515, "total luciferase, % of control": 71.6, "outcome": "inactive"}
{"gene": "ZIC2 (Zic family zinc finger 2)", "siRNA no.": 2, "total luciferase, z-score": -0.811, "total luciferase, % of control": 65.8, "outcome": "inactive"}
{"gene": "ZIC2 (Zic family zinc finger 2)", "siRNA no.": 3, "total luciferase, z-score": 1.54, "total luciferase, % of control": 113, "outcome": "inactive"}
{"gene": "KLRC1 (killer cell lectin like receptor C1)", "siRNA no.": 1, "total luciferase, z-score": -0.303, "total luciferase, % of control": 75.9, "outcome": "inactive"}
{"gene": "KLRC1 (killer cell lectin like receptor C1)", "siRNA no.": 2, "total luciferase, z-score": -0.768, "total luciferase, % of control": 66.6, "outcome": "inactive"}
{"gene": "KLRC1 (killer cell lectin like receptor C1)", "siRNA no.": 3, "total luciferase, z-score": -0.0229, "total luciferase, % of control": 81.4, "outcome": "inactive"}
{"gene": "PRKCH (protein kinase C eta)", "siRNA no.": 1, "total luciferase, z-score": 0.0268, "total luciferase, % of control": 82.4, "outcome": "inactive"}
{"gene": "PRKCH (protein kinase C eta)", "siRNA no.": 2, "total luciferase, z-score": -0.326, "total luciferase, % of control": 75.4, "outcome": "inactive"}
{"gene": "PRKCH (protein kinase C eta)", "siRNA no.": 3, "total luciferase, z-score": 1.18, "total luciferase, % of control": 105, "outcome": "inactive"}
{"gene": "PKLR (pyruvate kinase L/R)", "siRNA no.": 1, "total luciferase, z-score": -0.101, "total luciferase, % of control": 79.9, "outcome": "inactive"}
{"gene": "PKLR (pyruvate kinase L/R)", "siRNA no.": 2, "total luciferase, z-score": 4.37, "total luciferase, % of control": 169, "outcome": "active"}
{"gene": "PKLR (pyruvate kinase L/R)", "siRNA no.": 3, "total luciferase, z-score": -0.99, "total luciferase, % of control": 62.2, "outcome": "inactive"}

Hits (from the list above):
{"gene": "PKLR (pyruvate kinase L/R)", "siRNA no.": 2, "total luciferase, z-score": 4.37, "total luciferase, % of control": 169, "outcome": "active"}

Further records follow:
{"gene": "ANKMY2 (ankyrin repeat and MYND domain containing 2)", "siRNA no.": 1, "total luciferase, z-score": -0.956, "total luciferase, % of control": 62.9, "outcome": "inactive"}
{"gene": "ANKMY2 (ankyrin repeat and MYND domain containing 2)", "siRNA no.": 2, "total luciferase, z-score": -1.6, "total luciferase, % of control": 50.1, "outcome": "inactive"}
{"gene": "ANKMY2 (ankyrin repeat and MYND domain containing 2)", "siRNA no.": 3, "total luciferase, z-score": -0.742, "total luciferase, % of control": 67.1, "outcome": "inactive"}
{"gene": "TAS2R39 (taste 2 receptor member 39)", "siRNA no.": 1, "total luciferase, z-score": 0.22, "total luciferase, % of control": 86.3, "outcome": "inactive"}
{"gene": "TAS2R39 (taste 2 receptor member 39)", "siRNA no.": 2, "total luciferase, z-score": -0.787, "total luciferase, % of control": 66.2, "outcome": "inactive"}
{"gene": "TAS2R39 (taste 2 receptor member 39)", "siRNA no.": 3, "total luciferase, z-score": -0.539, "total luciferase, % of control": 71.2, "outcome": "inactive"}
{"gene": "PTGER4 (prostaglandin E receptor 4)", "siRNA no.": 1, "total luciferase, z-score": 1.37, "total luciferase, % of control": 109, "outcome": "inactive"}
{"gene": "PTGER4 (prostaglandin E receptor 4)", "siRNA no.": 2, "total luciferase, z-score": -0.00338, "total luciferase, % of control": 81.8, "outcome": "inactive"}
{"gene": "PTGER4 (prostaglandin E receptor 4)", "siRNA no.": 3, "total luciferase, z-score": 0.136, "total luciferase, % of control": 84.6, "outcome": "inactive"}
{"gene": "CTSH (cathepsin H)", "siRNA no.": 1, "total luciferase, z-score": 0.136, "total luciferase, % of control": 84.6, "outcome": "inactive"}
{"gene": "CTSH (cathepsin H)", "siRNA no.": 2, "total luciferase, z-score": -1.15, "total luciferase, % of control": 59, "outcome": "inactive"}
{"gene": "CTSH (cathepsin H)", "siRNA no.": 3, "total luciferase, z-score": 0.0528, "total luciferase, % of control": 82.9, "outcome": "inactive"}
{"gene": "SP3 (Sp3 transcription factor)", "siRNA no.": 1, "total luciferase, z-score": -1.03, "total luciferase, % of control": 61.5, "outcome": "inactive"}
{"gene": "SP3 (Sp3 transcription factor)", "siRNA no.": 2, "total luciferase, z-score": -0.1, "total luciferase, % of control": 79.9, "outcome": "inactive"}
{"gene": "SP3 (Sp3 transcription factor)", "siRNA no.": 3, "total luciferase, z-score": 1.17, "total luciferase, % of control": 105, "outcome": "inactive"}
